In patent publication US8158587B2 (Kyushu Institute of Technology, priority 2006, dated 2012):
HELM strings list residues between dots; [ac] is acetyl, [am] amide, other brackets name non-standard units.

Test: general procedure: solution-phase peptide synthesis; HATU/diisopropylethylamine (cyclization)
Conditions: coupling step

Point of comparison: Boc-L-Ae9-Aib-L-Phe-D-Pro-OtBu, step yield 94%. Against it:
- Boc-L-Ah7(allyl)-Aib-L-Phe-D-Pro-OtBu — lower, 35%

Same assay, conditions: cyclisation step

Point of comparison: cyclo(-L-Ah7 (allyl)-Aib-L-Phe-D-Pro-), cyclisation yield 49%. Against it:
- PEPTIDE1{[Ae9].[Aib].F.[dP]}$PEPTIDE1,PEPTIDE1,1:R1-4:R2$$$V2.0 — higher, 87%

Same assay, conditions: late stage modification step

Point of comparison: “PEPTIDE1{[Ah7(acetonyl)].[Aib].F.[dP]}$PEPTIDE1,PEPTIDE1,1:R1-4:R2$$$V2.0”, step yield 48%. Against it:
- PEPTIDE1{[Am5(trifluoroacetonyl)].[Aib].F.[dP]}$PEPTIDE1,PEPTIDE1,1:R1-4:R2$$$V2.0 — higher, 54%
- PEPTIDE1{[Am7(methyl)].[Aib].F.[dP]}$PEPTIDE1,PEPTIDE1,1:R1-4:R2$$$V2.0 — higher, 72%
- PEPTIDE1{[Am7(trifluoroacetonyl,sulfoxide)].[Aib].F.[dP]}$PEPTIDE1,PEPTIDE1,1:R1-4:R2$$$V2.0 — lower, 44%
- cyclo(-L-Ae9 (8-OH,9-OCH2CF3)-Aib-L-Phe-D-Pro-) — higher, 75%
- cyclo(-L-Ae9 (8-OH,9-OCH2CH3)-Aib-L-Phe-D-Pro-) — higher, 70%
- cyclo(-L-Ae9 (8-OH,9-OCH3)-Aib-L-Phe-D-Pro-) — higher, 68%
- cyclo(-L-Ae9(8-OH,9-Br)-Aib-L-Phe-D-Pro-) — higher, 93%
- cyclo(-L-Ae9(Actmk)-Aib-L-Phe-D-Pro-) — higher, 79%
- cyclo(-L-Ae9(Bmk)-Aib-L-Phe-D-Pro-) — higher, 89%
- cyclo(-L-Ae9(Dmamk)-Aib-L-Phe-D-Pro-) — higher, 68%
- cyclo(-L-Ae9(Emk)-Aib-L-Phe-D-Pro-) — higher, 93%
- cyclo(-L-Ae9(Mmk)-Aib-L-Phe-D-Pro-) — higher, 85%
- cyclo(-L-Ae9(Mtmk)-Aib-L-Phe-D-Pro-) — higher, 87%
- cyclo(-L-Ae9(O)-Aib-L-Phe-D-Pro-) — higher, 89%
- cyclo(-L-Ae9(Tfemk)-Aib-L-Phe-D-Pro-) — higher, 93%
- cyclo(-L-Ah7 (CH2COCH2Br)-Aib-L-Phe-D-Pro-) — higher, 73%
- cyclo(-L-Ah7(CH2CH(OH)CH2Br)-Aib-L-Phe-D-Pro-) — higher, 91%
- cyclo(-L-Ah7(glycidyl)-Aib-L-Phe-D-Pro-) — lower, 47%
- cyclo(-L-Am6(1,1,1-trifluoroacetonyl)-Aib-L-Phe-D-Pro-) — lower, 47%
- cyclo(-L-Am7(1,1,1-trifluoroacetonyl)-Aib-L-Phe-D-Pro-) — higher, 54%
- cyclo(-L-Am7(2-pyridylmethyl,sulfoxide)-Aib-L-Phe-D-Pro-) — lower, 45%
- cyclo(-L-Am7(2-pyridylmethylthio ether)-Aib-L-Phe-D-Pro-) — higher, 51%
- cyclo(-L-Am7(3-pyridylmethyl)-Aib-L-Phe-D-Pro-) — higher, 58%
- cyclo(-L-Am7(4-pyridylmethyl)-Aib-L-Phe-D-Pro-) — lower, 44%
- cyclo(-L-Am7(CH2CH(OH)OCH3)-Aib-L-Phe-D-Pro-) — higher, 90%
- cyclo(-L-Am7(acetonyl)-Aib-L-Phe-D-Pro-) — higher, 59%
- cyclo(-L-Am7(acetonyl,sulfoxide)-Aib-L-Phe-D-Pro-) — lower, 43%
- cyclo(-L-Am7(benzyl)-Aib-L-Phe-D-Pro-) — higher, 63%
- cyclo(-L-Am7(glycidyl)-Aib-L-Phe-D-Pro-) — higher, 78%
- cyclo(-L-Am7(methoxyacetonyl)-Aib-L-Phe-D-Pro-) — higher, 72%
- cyclo(-L-Am8(1,1,1-trifluoroacetonyl)-Aib-L-Phe-D-Pro-) — the same, 48%

Same assay, conditions: late stage modification step, TFA salt

Point of comparison: H-L-Ah7(allyl)-Aib-L-Phe-D-Pro-OH-TFA, step yield 80%. Against it:
- PEPTIDE1{[Ae9].[Aib].F.[dP]}$PEPTIDE1,PEPTIDE1,1:R1-4:R2$$$V2.0 — higher, 100%
